Results are given in words; binding and its absence hold for the method and conditions named.
Biological target: T1, ETaR-GFP (UniProt P25101)
T1 construct: endothelin A receptor (ETaR) with GFP fused to its C-terminus (in cytosol); also called ETaR cells; ETaR-GFP cells; source: CHO cells stably expressing ETaR-GFP (provided by Gmax Biopharm LLC; clone S-33 for vesicles); on cells, and in vesicles prepared from them; not shown: GFP, C-terminal, kept
Assay: flow cytometry on cells; ETaR-GFP cells mixed 1:1 with cells displaying the antibody or PD1, 30 min at 4 °C, labelled with anti-human-IgG-APC; also at pH 6.5 and pH 7.5

By UniProt entry, the sequences of proteins in these tests, tags left out. Residues count along the entry.
UniProt P25101, residues 21-427: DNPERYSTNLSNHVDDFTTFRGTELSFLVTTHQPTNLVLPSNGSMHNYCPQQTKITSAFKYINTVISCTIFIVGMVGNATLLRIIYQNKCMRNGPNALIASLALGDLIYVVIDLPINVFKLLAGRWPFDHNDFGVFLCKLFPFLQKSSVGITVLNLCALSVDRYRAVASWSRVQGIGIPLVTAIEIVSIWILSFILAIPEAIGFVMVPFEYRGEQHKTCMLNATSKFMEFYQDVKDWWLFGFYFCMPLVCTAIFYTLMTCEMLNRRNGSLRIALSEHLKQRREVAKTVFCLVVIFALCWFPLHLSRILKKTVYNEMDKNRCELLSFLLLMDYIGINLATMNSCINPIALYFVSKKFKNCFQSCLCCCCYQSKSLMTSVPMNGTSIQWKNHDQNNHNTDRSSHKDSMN
UniProt Q15116, residues 32-160: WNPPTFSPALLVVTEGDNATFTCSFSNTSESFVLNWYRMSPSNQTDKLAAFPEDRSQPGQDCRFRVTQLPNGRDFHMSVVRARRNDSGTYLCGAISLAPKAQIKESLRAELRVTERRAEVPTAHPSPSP

binding: no binding
Substance: PD1-Fc (wild type) displayed on CHO cells (from UniProt Q15116 32-160) (Fc fusion)
